The nature of this data set: self-splicing fitness, log relative to wild type (ln ratio); higher = more splicing; Tetrahymena group I intron in knt gene, E. coli kanamycin selection, DiMSum; sequences stand for … in CUCUCU…GGAGGGAAAAGUUAUCAGGCAUGCACCUGGUAGCUAGUCUUUAAACCAAUAGAUUGCAUCGGUUUAAAAGGCAAGACCGUCAAAUUGCGGGAAAGGGGUCAACAGCCGUUCAGUACCAAGUCUCAGGGGAAACUUUGAGAUGGCCUUGCAAAGGGUAUGGUAAUAAGCUGACGGACAUGGUCCUAACCACGCAGCCAAGUCCUAAGUCAACAGAUCUUCUGUUGAUAUGGAUGCAGUUCACAGACUAAAUGUCGGUCGGGGAAGAUGUAUUCUUCUCAUAAGAUAUAGUCGGACCUCUCCUUAAUGGGAGCUAGCGGAUGAAGUGAUGCAACACUGGAGCCGCUGGGAACUAAUUUGUAUGCGAAAGUAUAUUGAUUAGUUUUGGAGUACUCGUGGUCG
In short, it runs like this:
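Six replicate transformations of E. coli BL21(DE3) with a pET-22b(+) library were grown overnight at 37°C or 30°C. The library randomised all eight P1ex-region intron nucleotides, the intron lying in the knt kanamycin-resistance gene, and plates were LB agar with or without 25 μg/mL kanamycin plus 100 μg/mL carbenicillin, 50 μM IPTG and 0.2% rhamnose. Pooled colonies were amplicon-sequenced on an Illumina HiSeq 2500, and fitness is the DiMSum error-weighted combination of wild-type-normalised replicate fold changes, kanamycin versus none.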

Data on 12 sequences can be found in the supplement of paper PMC7877785.

± gives the uncertainty stated by the source. Many of these values have a large error.

For the sequence CCGGAGCAAUAUUACGUACC, under “30 °C”, the “self-splicing fitness (ln)” value was -1.67 ± 0.61.
Still for that read-out and setting: under UGUAAGCAAUAUUACGUAGC stands -3.21 ± 0.53; under GGAGAGCAAUAUUACGUGGC, -4.96 ± 0.71.
On the same count and under the same terms, under CCCCAGCAAUAUUACGAAUA stands -4.43 ± 0.72; under CGAUAGCAAUAUUACGGAUA, -3.02 ± 0.53.
Take CGCAAGCAAUAUUACGGUCC: the “self-splicing fitness (ln)” value is, setting by setting: (30 °C) -1.07 ± 0.076; (37 °C) -0.628 ± 0.12.
The corresponding values for UAAAAGCAAUAUUACGAGCC are -1.96 ± 0.6 and -1.17 ± 0.52.
As to GUUUAGCAAUAUUACGUACC, the “self-splicing fitness (ln)” value (37 °C) is -1.39 ± 1.2.
On to CUCUAGCAAUAUUACGACCA, for which the “self-splicing fitness (ln)” value reads like this: (30 °C) -3.59 ± 0.53; (37 °C) -3.79 ± 0.51.
As to CACGAGCAAUAUUACGCACC, under “30 °C”, the “self-splicing fitness (ln)” value was -1.33 ± 0.51.
On to ACGCAGCAAUAUUACGGGCC, for which the “self-splicing fitness (ln)” value (30 °C) was -1.28 ± 0.091 and the “self-splicing fitness (ln)” value (37 °C) was -0.893 ± 0.12.
With UUCUAGCAAUAUUACGCGUU, the “self-splicing fitness (ln)” value was -2.47 ± 0.15 (30 °C) and -1.9 ± 0.13 (37 °C).
